Data taken from patent US10736902B2, “Method of treating triple negative breast cancer” (GEISTLICH PHARMA AG, priority 2016, dated 2020).
Some entries share one result that the patent states for a list of compounds.

Experiments:
[1] = tested on: ER negative breast cancer cells (BT-20 and MDA-MB-231) and ER positive cells (BT-474 and MCF-7); assay: Apoptosis/necrosis (annexin V / propidium iodide) and ROS in breast cancer cells; format: cell-based; conditions: after 48 hours, p<0.05-0.01
Method: Methods: Primary and metastatic ER negative breast cancer cells (BT-20 and MDA-MB-231) and ER positive cells (BT-474 and MCF-7) were separately treated with increasing concentrations of Taurolidine and 2250 as shown in FIG. 7A and FIG. 8A. Apoptosis and necrosis were evaluated based on phosphatidylserine externalization using annexin V and propidium iodide (PI). The contribution of caspases 3, 8 and 9 on apoptosis, and autophagy was evaluated by both flow cytometry and western blotting. The impact of reactive oxygen species (ROS) was evaluated using the radical scavenger agent n-acetylcysteine (NAC) and buthionine-sulfoximine (BSO), a glutathione-depleting agent. Necroptosis was evaluated using nescrostatin-1, a potent inhibitor of the process.

[2] = tested on: TNBC cell lines (BT-20, MDA-MB-231); assay: Breast cancer cell viability (MTT) assay; format: cell-based; conditions: after 48 hours

Row | Structure (SMILES) | cell death ([1]; ≥100 μM (≥284.7 microgram)) [%] | cell death ([2]; 100 μM (28 μg/ml)) [%] | cell death ([1]; ≥250 μM (≥342 microgram)) [%] | cell death ([2]; 250 μM (34 μg/ml)) [%]
1 | O=S1(=O)CCN(CN2CCS(=O)(=O)NC2)CN1 [taurolidine, reference compound] | > 50 | > 50 | – | –
2 | O=S1(=O)CCOCN1 [C-2250, Tetrahydro1,4,5-oxathiazin-4-dioxide] | – | – | > 50 | > 50
